In the supplement of paper PMC3334620:
Over roughly 33,000 sequences, “E-score (-0.5 to 0.5)” has its median near -8e-05; the highest 2% begin near 0.23. The list shows a part of the results.

molecular target: T1, Nrg2 (UniProt P38082); assay: PBM E-score (8-mer binding enrichment) (E-score (-0.5 to 0.5)); higher = stronger / more preferred TF binding; settings: protein concentration: 100 nM; construct: GST-full length
T1 sequence: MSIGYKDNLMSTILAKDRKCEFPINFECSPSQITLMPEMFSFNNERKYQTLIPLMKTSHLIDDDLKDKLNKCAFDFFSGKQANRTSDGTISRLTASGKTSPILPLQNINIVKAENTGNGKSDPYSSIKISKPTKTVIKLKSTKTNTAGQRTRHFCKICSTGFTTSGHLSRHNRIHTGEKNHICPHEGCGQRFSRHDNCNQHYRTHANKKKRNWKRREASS
Procedure, shortened: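 Using PURExpress in vitro transcription/translation, GST-tagged yeast transcription factors were made in full-length or DNA-binding-domain form. These were applied at about 100-200 nM to double-stranded universal all-10-mer Agilent arrays, and bound protein was detected with fluorescent anti-GST. Scans were normalised with masliner before the Universal PBM Analysis Suite assigned E-scores to ungapped eight-base words pooled with their reverse complements.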

Sequence	PBM E-score
TATAGCAA	-0.0234
CAGAAGTC	-0.0776
GTCTTAAA	-0.116
CACGAAAG	-0.00164
AGTGAACC	0.0737
ACCGCGCC	0.00956
CATACGTC	-0.187
CGCCCTAA	-0.171
GGCGTCCC	-0.00859
ATAATCTA	-0.0211
ATAAGACC	0.052
CAGCCAGC	-0.115
ACCGGCCT	-0.149
AACCTTGA	0.146
CGCCGGAA	-0.0299
GACACCAA	0.0717
CTGTCCCC	-0.0298
ATAATTTA	0.0946
AGAAGACT	-0.153
ACGTCCAG	-0.159
CATTTGCG	0.00235
ATCCCTCA	-0.0503
AATACTCT	0.0614
CTAGCCAA	0.0477
AGTGCGAA	-0.149

Sequence	PBM E-score
CGTACCCA	-0.0432
AGAATCTC	-0.0801
TACGTTAA	-0.0188
GTTGGAAA	0.0378
ATTACGGC	0.0634
GCTCATTA	-0.058
CCGGCCCG	-0.108
GGTATACA	0.0828
ATAGGAAC	-0.0698
ATACCTTG	0.0746
AAACAGAG	0.0858
AGGCATAT	-0.0234
ACTGCAGG	-0.0912
GGGTTCCA	0.0783
CTTCAAGC	-0.0747
GTGCTATA	0.0796
GAGCCCTC	-0.188
CAGAGTTA	0.11
CCACCCGA	-0.0859
ACGATTGA	0.0486
CGACCGTA	-0.14
CCCATGGA	-0.00741
CATTGAAA	0.147
ATTCATGG	0.0326
AGCTGTAC	0.0126

Sequence	PBM E-score
GCCGCTAA	0.00842
CGCCAAGA	-0.121
ATACATGA	0.00888
CAATTCTA	0.087
ACCTGCAA	-0.0751
AATAGGTA	0.116
CGACCTTA	0.0761
AAGTTCTA	-0.0565
CGGTGGCA	-0.286
TTATTGAA	0.042
AAAACCAT	0.137
AGATGTGC	0.115
AGCACCAG	-0.0385
TAACGAGA	0.0391
GCACCACA	-0.00115
CCGCCTCC	-0.336
AACTTACT	-0.128
GGAATGCC	0.11
ACGCCAGG	-0.0644
CAGCTAAC	-0.187
CCGATGTC	0.00418
TCATCTCA	0.191
ATATCTTA	0.12
ACACTGGG	-0.0843
GCCGGCAA	0.123

Sequence	PBM E-score
ACCTAGGA	0.0462
CTATTGTA	0.133
AAAGGGAG	-0.186
CGCTTGTA	0.199
GAGTCACC	-0.167
AACACCAT	0.0524
ACAAAAAT	0.159
ATCTTAGC	-0.0494
AGAAGTGA	-0.0836
CGGCGTAC	-0.104
GCATTAAA	0.136
ATAACGCG	0.173
AACGCAAA	0.112
CCGAAGGC	-0.274
ACTACTCG	0.187
AGATGGCC	-0.11
GATAGCGC	0.0725
GGATGAAA	0.196
CTTCTAGC	-0.221
CATGGAAC	0.0476
CTCAAGAA	-0.00391
CCACTGCC	0.0288
AAGCCGCC	-0.219
AGAGTACC	0.132
ACTAAGGG	0.0502

Sequence	PBM E-score
AATACCTC	0.0799
CTTCTCTA	-0.137
AGCAGTTA	-0.0173
GATCTGCA	-0.0673
TAATTTAA	0.0924
AGAACCAT	-0.0163
CATAGTCC	0.0437
TCTTCTAA	-0.0126
ACGCAAGC	0.0098
ATGATCAC	0.156
AAACCTAC	0.0887
ACCCGCAG	0.0663
ACGCCGCT	-0.0596
CACCGTGA	-0.113
GGTCATTA	-0.088
AACATATT	0.0545
ACGGAAGT	-0.0291
CGGATGTC	0.00798
ACATCAGG	0.153
CCGTCACC	-0.151
ATGCCATA	0.0783
AACGTTCT	0.129
AGAGGGCT	-0.242
ATTTAGGG	0.141
AGGATACT	-0.068

In another format: entries from further up
Sequence,PBM E-score
TATAGCAA,-0.0234
CGCCGGAA,-0.0299
ACGCAAGC,0.0098
CCGTCACC,-0.151

Looked up one by one from the entries so far (five):
Sequence	PBM E-score
AGCAGTTA	-0.0173
CGGATGTC	0.00798
AACGTTCT	0.129
ATGCCATA	0.0783
CCGTCACC	-0.151

(list continues)

Sequence	PBM E-score
ACGCATTA	-0.0837
ACCAGCAT	0.0206
AGAATAGA	0.0121
TCAGTTCA	0.0522
ATTGTTTG	0.18
ATGGGCAA	0.0718
TGGGCACA	-0.0208
ACTTGCAA	0.116
AAGGTAAC	0.129
AACCCTGT	0.244
GTGTGAAC	0.0759
GATTGCTA	-0.159
AGCCCTTG	-0.0993
TAGATCGA	0.0965
GGGAGAAC	-0.189
CCGATGGC	-0.0549
CACTATCC	-0.02
AAAAAAGC	0.00716
GATCGGCA	-0.0228
TGCTAAAA	-0.17
CAATTCTG	-0.0606
CGCGACCC	0.0836
TCGACAGA	-0.105
AATGGTCA	0.0742
GCTGAATA	0.141

Sequence	PBM E-score
GCTGGCCA	0.0316
ACAGACAA	0.224
CCTACTTA	0.0393
AAGTCTCT	-0.312
AGACGGGC	-0.088
CAATGTGA	0.113
GAGCTCAC	0.0363
ATCTACAG	0.135
TATGCGGA	0.0715
ACGGATTC	0.0174
CGCACGCA	-0.0894
AGCTCGGA	-0.107
GTATTTCA	0.0415
CAGGGACA	0.371
CACCCCAC	0.217
AGTGTTGG	0.077
TAGGAAGA	-0.255
CGAGTACG	-0.117
CAACTACG	0.0137
CGTTGTTA	0.092
GAGGCGCC	-0.0536
CGCTGGGA	-0.178
